{"sequences": {"note": "Protein sequences, listed by entry. Tags and fused reporters are not part of them. Lines headed by an entry give the natural chain unless they say otherwise; changes in a name come on top.", "UniProt P29372": "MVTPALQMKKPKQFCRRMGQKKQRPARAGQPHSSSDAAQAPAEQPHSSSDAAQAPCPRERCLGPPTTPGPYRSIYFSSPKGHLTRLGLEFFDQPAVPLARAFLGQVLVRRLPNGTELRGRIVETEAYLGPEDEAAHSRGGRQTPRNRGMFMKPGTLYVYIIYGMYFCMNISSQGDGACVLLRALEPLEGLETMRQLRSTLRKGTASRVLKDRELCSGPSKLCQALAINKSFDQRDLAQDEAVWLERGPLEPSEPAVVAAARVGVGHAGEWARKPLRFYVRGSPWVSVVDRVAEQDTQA"}, "source": "paper PMC6884549", "about": "“Alkyladenine DNA glycosylase associates with transcription elongation to coordinate DNA repair with gene expression” (Nature Communications, 2019)", "target": "T1, ELP1 subunit of the Elongator complex, endogenous (human (endogenous in HEK293T)) (UniProt O95163)", "T1 sequence": "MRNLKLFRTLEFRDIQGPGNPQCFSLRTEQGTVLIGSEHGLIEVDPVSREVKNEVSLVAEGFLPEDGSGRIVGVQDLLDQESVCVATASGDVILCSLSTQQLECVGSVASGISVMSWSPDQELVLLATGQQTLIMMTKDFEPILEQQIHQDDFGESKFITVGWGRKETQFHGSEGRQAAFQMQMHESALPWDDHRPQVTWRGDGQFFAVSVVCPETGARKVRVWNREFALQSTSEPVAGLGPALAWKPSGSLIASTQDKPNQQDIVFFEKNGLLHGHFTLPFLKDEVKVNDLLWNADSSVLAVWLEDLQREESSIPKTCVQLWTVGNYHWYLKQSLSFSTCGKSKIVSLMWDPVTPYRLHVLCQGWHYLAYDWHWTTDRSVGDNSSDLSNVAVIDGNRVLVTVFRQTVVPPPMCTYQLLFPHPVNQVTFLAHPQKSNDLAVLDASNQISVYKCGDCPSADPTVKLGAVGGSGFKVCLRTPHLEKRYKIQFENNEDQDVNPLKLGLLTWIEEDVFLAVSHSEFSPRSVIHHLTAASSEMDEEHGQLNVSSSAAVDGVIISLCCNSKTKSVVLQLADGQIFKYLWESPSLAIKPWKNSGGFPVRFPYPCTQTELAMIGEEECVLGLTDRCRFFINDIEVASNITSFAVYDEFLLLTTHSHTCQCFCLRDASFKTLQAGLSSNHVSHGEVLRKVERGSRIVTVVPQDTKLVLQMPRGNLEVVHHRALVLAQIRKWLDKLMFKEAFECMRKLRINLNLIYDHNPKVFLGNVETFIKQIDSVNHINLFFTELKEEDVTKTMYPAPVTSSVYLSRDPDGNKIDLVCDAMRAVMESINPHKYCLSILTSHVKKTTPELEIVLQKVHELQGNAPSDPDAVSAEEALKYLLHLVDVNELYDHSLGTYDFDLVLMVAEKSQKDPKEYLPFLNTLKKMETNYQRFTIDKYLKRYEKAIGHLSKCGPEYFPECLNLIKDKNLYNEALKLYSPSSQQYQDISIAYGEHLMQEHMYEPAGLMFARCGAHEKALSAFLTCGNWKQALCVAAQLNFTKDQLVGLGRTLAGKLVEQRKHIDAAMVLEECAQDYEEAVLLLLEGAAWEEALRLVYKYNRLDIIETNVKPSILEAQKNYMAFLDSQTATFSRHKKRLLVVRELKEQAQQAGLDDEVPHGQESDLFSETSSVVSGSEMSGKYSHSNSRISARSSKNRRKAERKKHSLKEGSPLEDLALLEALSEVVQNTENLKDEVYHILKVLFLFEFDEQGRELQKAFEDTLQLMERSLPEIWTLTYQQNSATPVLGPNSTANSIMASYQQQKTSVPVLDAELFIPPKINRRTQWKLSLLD", "test": "co-IP; endogenous proteins; 0.5 mg HEK293T whole cell extract with 2 µg anti-AAG or anti-ELP1 antibody overnight at 4 °C, Protein-A Dynabeads, immunoblot; cells untreated or MMS treated; extracts with or without DNaseI, MNase, RNaseI; WT and ELP1-/- cells", "note": "No constants are given. Whether binding was seen depends on the method and setting. In cells and extracts the contact can be indirect. Binding can be weak; no strength is given."}
{"substance": "Alkyladenine DNA glycosylase (AAG), endogenous (from UniProt P29372)", "values": [{"measurement": "binding", "value": "binds"}]}
